PubChem BioAssay AID1259424 – University of Nebraska Medical Center – 2018

Screen: 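Find knockdowns that reproduce the expression shifts seen after KSR1 loss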 (primary screen)
System: human HCT116 colon cancer cells
Knock-down reagent: siRNA pool against human genes, 50 nM
Detection: 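Log2 levels of six mRNAs (branched-DNA multiplex), adjusted by two reference genes and the non-targeting median, then scored against the average KSR1 knockdown pattern as Pearson r and euclidean distance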
Reading the numbers: mean correlation with KSR1 profile: higher = expression change more like KSR1 knockdown; mean distance from KSR1 profile: higher = expression change less like KSR1 knockdown
The whole screen tested about 14,000 reagents; this is an unselected part. 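Higher correlation or smaller distance means closer resemblance to KSR1 loss; control wells, including KSR1 knockdowns, recur on many plates.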 Not all columns of the deposit are shown. No sequences are given here. The record does not give: the time to read-out.

Which result is listed for ADAM30 (ADAM metallopeptidase domain 30)?
mean correlation with KSR1 profile: -0.25; mean distance from KSR1 profile: 2.04

How did the screen score YAF2 (YY1 associated factor 2)?
mean correlation with KSR1 profile: 0.351; mean distance from KSR1 profile: 1.55

For HOOK2 (hook microtubule tethering protein 2), what does the deposit list?
mean correlation with KSR1 profile: -0.271; mean distance from KSR1 profile: 2.3

How did the screen score PDCD4 (programmed cell death 4)?
mean correlation with KSR1 profile: 0.26; mean distance from KSR1 profile: 1.93

With TRAPPC9 (trafficking protein particle complex subunit 9), what was measured?
mean correlation with KSR1 profile: 0.344; mean distance from KSR1 profile: 1.51

For ZNF138 (zinc finger protein 138), how do the results read?
mean correlation with KSR1 profile: -0.091; mean distance from KSR1 profile: 1.45

For TANK (TRAF family member associated NFKB activator), what was measured?
mean correlation with KSR1 profile: 0.235; mean distance from KSR1 profile: 1.6

In a second layout: 2 of the entries above
{"target gene": "YAF2 (YY1 associated factor 2)", "mean correlation with KSR1 profile": 0.351, "mean distance from KSR1 profile": 1.55}
{"target gene": "HOOK2 (hook microtubule tethering protein 2)", "mean correlation with KSR1 profile": -0.271, "mean distance from KSR1 profile": 2.3}

Next results follow.
Which result is listed for MIOS (meiosis regulator for oocyte development)?
mean correlation with KSR1 profile: -0.278; mean distance from KSR1 profile: 2.93

With GDPD3 (glycerophosphodiester phosphodiesterase domain containing 3), how do the results read?
mean correlation with KSR1 profile: -0.141; mean distance from KSR1 profile: 3.5

What did the screen give for COP1 (COP1 E3 ubiquitin ligase)?
mean correlation with KSR1 profile: -0.294; mean distance from KSR1 profile: 2.05

Which result is listed for EFNA4 (ephrin A4)?
mean correlation with KSR1 profile: 0.257; mean distance from KSR1 profile: 2.31

What did the screen give for EDN1 (endothelin 1)?
mean correlation with KSR1 profile: 0.269; mean distance from KSR1 profile: 2.03
